{
  "source": "PubChem BioAssay AID463116",
  "about": "(University of Pittsburgh Molecular Library Screening Center, 2010)",
  "note": "The list shows a part of the results. Further columns of the screen follow, without active or inactive calls. The list favours compounds with an active or inconclusive main result.",
  "data": [
    {"assay": "blockers of dexamethasone-driven GR-EGFP nuclear import – imaging, high-content imaging, GR-EGFP cells, confirmation (AID 463116)", "settings": "3617.4 GR-EGFP nuclear translocation imaging, dexamethasone-induced; measured here: cell count per field; at 20 µM", "values": [
      {"smiles": "Cc1cc(C)nc(S/C=C/C(=O)c2ccccc2F)n1", "z-score": 0.675},
      {"smiles": "Cc1ccc(NC(=O)C(=Cc2ccc(C(=O)O)cc2)C(=O)Nc2ccc(C)cc2C)c(C)c1", "z-score": 0.227},
      {"smiles": "Cc1[nH]n(-c2ncc(-c3ccc(Cl)cc3)s2)c(=O)c1C(c1ccc(Cl)cc1)C(C#N)C#N", "note": "(stereo unspecified)", "z-score": -0.0015},
      {"smiles": "CCC(=O)OCCNc1cc(Sc2nc3ccccc3[nH]2)c2nonc2c1[N+](=O)[O-]", "z-score": -3.01},
      {"smiles": "COC(C/C=C/C(=O)COCc1ccccc1)OC", "z-score": -0.793},
      {"smiles": "CC(C)C[C@H](N)c1nnc(S(=O)(=O)Cc2cccc(F)c2)o1", "z-score": -0.677},
      {"smiles": "CCOC(=O)c1cnc2c(F)ccc(F)c2c1Sc1ccccc1", "z-score": -0.555},
      {"smiles": "Cc1ccc(-n2nnnc2C(Cl)c2nnnn2-c2ccc(C)cc2)cc1", "z-score": 0.341},
      {"smiles": "Cc1ccc(/C=C/C(=O)Nc2ccc(Oc3ccccc3)cc2)o1", "z-score": 0.273},
      {"smiles": "CC1=CC(C)(C)Nc2ccc(OC(=O)c3cccnc3)cc21", "z-score": 0.309},
      {"smiles": "Cc1[nH]c2ccccc2c(=O)c1C(=O)/C=C/c1ccccc1", "z-score": -0.29},
      {"smiles": "O=C1/C(=C/c2ccc(N3CCCC3)cc2)NC(=S)N1C1CC1", "z-score": 0.331},
      {"smiles": "O=C(c1ccc(Cl)cc1)c1c[nH]c(C(=O)C(Cl)(Cl)Cl)c1", "z-score": -0.174},
      {"smiles": "CCOC(=O)C(=Cc1ccc(F)cc1)C(=O)OCC", "z-score": 0.507},
      {"smiles": "CC[n+]1c(/C=C/C=C/N(C(C)=O)c2ccccc2)sc2cc(OC)ccc21", "z-score": -0.374},
      {"smiles": "COc1cccc(C2CC(C(F)(F)F)n3nc(C(=O)NCc4cccnc4)cc3N2)c1", "note": "(stereo unspecified)", "z-score": -0.0577},
      {"smiles": "CCN1C/C(=C/c2ccc(OC)c(O)c2)C(=O)/C(=C/c2ccc(OC)c(O)c2)C1", "z-score": 0.342},
      {"smiles": "CCOC(=O)CCSc1nc(C)cc(C(F)(F)F)c1C#N", "z-score": 0.218},
      {"smiles": "Cc1ccc(-c2csc(NC(=O)Cc3ccc(F)cc3)n2)o1", "z-score": 0.226},
      {"smiles": "CCNc1ccc(Br)cc(C(=O)/C=C/c2ccc(Cl)cc2Cl)c1=O", "z-score": 0.277},
      {"smiles": "O=C(c1coc(=O)c(Br)c1)N1CCC(C(O)(c2ccccc2)c2ccccc2)CC1", "z-score": 0.845},
      {"smiles": "CC(=O)Nc1cccc(C(=O)/C=C/c2ccc(F)cc2)c1", "z-score": 0.222},
      {"smiles": "COc1ccc2c(c1)c1ccc3c(c1n2C)C(=O)C=CC3=O", "z-score": 0.191},
      {"smiles": "CCOC(=O)/C(=C\\c1cn(C)c2ccccc12)[N+](=O)[O-]", "z-score": 0.0614},
      {"smiles": "CCOC(=O)c1c(NC(=O)CCl)sc(CN(C)C)c1-c1ccccc1", "z-score": 0.31},
      {"smiles": "CCOCCCNC1=C(Cl)C(=O)c2ccccc2C1=O", "z-score": -0.582},
      {"smiles": "CCCCc1cc(O)c(CCCC)c(O)c1", "z-score": 0.231},
      {"smiles": "O=[N+]([O-])/C=C/c1cn(Cc2ccc(F)cc2)c2ccccc12", "z-score": -0.341},
      {"smiles": "O=C(CN1CCN(S(=O)(=O)c2ccccc2[N+](=O)[O-])CC1)NC(=O)NCc1ccco1", "z-score": 0.0215},
      {"smiles": "COCCCNc1nc2c(-c3ccc(Cl)cc3)nnn2c2ccccc12", "z-score": 0.00439},
      {"smiles": "Clc1ncnc2scc(-c3ccc(Br)cc3)c12", "z-score": 0.679},
      {"smiles": "CC(C)CN1C(=O)/C(=C/c2c(N3CCc4ccccc4C3)nc3ccccn3c2=O)SC1=S", "z-score": 0.517},
      {"smiles": "CNc1ccc(/C=C2\\CSc3ccccc3C2=O)cc1[N+](=O)[O-]", "z-score": 0.818},
      {"smiles": "CN1CC=C2C(C#N)=C(N)C(C#N)(C#N)C(Cc3ccccc3)C2C1", "note": "(stereo unspecified)", "z-score": -0.0979},
      {"smiles": "CCN1CC=C2C(C#N)=C(N)C(C#N)(C#N)C(CCc3ccccc3)C2C1", "note": "(stereo unspecified)", "z-score": 0.793},
      {"smiles": "Cc1cc(C)cc(OC(=O)CS(=O)c2ccc(C(F)(F)F)cc2[N+](=O)[O-])c1", "note": "(stereo unspecified)", "z-score": -0.638},
      {"smiles": "CCCN1C(=O)/C(=C/c2c(NCCCOC(C)C)nc3c(C)cccn3c2=O)SC1=S", "z-score": -0.105},
      {"smiles": "Cc1ccc2nc(SCC(=O)Nc3ccc(C(N)=O)cc3)[nH]c2c1", "z-score": 0.41},
      {"smiles": "N#CC(C#N)=C1C=CC=CN1/C(=C\\c1ccco1)C(=O)c1ccccc1", "z-score": 0.143},
      {"smiles": "CN(C(=O)COC(=O)c1nc(Cl)c(Cl)c(Cl)c1Cl)C1CCS(=O)(=O)C1", "note": "(stereo unspecified)", "z-score": 0.378},
      {"smiles": "COc1cc(/C=C/C(=O)c2ccc(C)c([N+](=O)[O-])c2)cc(OC)c1O", "z-score": -0.0641},
      {"smiles": "Cc1nc([N+](=O)[O-])c(Br)n1CC(=O)c1cccc([N+](=O)[O-])c1", "z-score": 0.429},
      {"smiles": "Cc1sc(NC(=O)c2sc3nc4c(C)cccc4cc3c2N)c(C#N)c1C", "z-score": 0.601},
      {"smiles": "CCOC(=O)c1cn(-c2c(Cl)cccc2Cl)c2cc(Cl)c([N+](=O)[O-])cc2c1=O", "z-score": 0.246},
      {"smiles": "Clc1ccc(-c2nnc(Sc3nc4ccccc4o3)c3ccccc23)cc1", "z-score": 0.65},
      {"smiles": "N#CC(C#N)=C1C=CC=CN1/C(=C\\c1ccco1)C(=O)c1ccc(Br)cc1", "z-score": 0.476},
      {"smiles": "CCCNC(=O)c1nnsc1S(=O)c1ccc(Cl)cc1", "note": "(stereo unspecified)", "z-score": -0.87},
      {"smiles": "CCOC(=O)COc1ccc(/C=C/[N+](=O)[O-])c(OCC(=O)OCC)c1", "z-score": 0.525},
      {"smiles": "CC1=CC(=Nc2c(C)n(C)n(-c3ccccc3)c2=O)C=CC1=O", "z-score": 0.551},
      {"smiles": "CCNc1ccc(Br)cc(C(=O)/C=C/c2c(Cl)cccc2Cl)c1=O", "z-score": -0.403},
      {"smiles": "Cc1ccccc1CS(=O)(=O)c1nnc([C@H](Cc2ccccc2)NC(=O)OC(C)(C)C)o1", "z-score": -0.405}
    ]}
  ]
}
